From the supplement of paper PMC8728848
The other results are listed elsewhere or left out.

What was measured:
Experiment in all cases: glycan array binding signal (z-score within array); higher = stronger binding
Settings in all cases: glycan notation: IUPAC condensed, linker removed
Kdn(a2-3)Gal(b1-3)GlcNAc = test system: Kdn(a2-3)Gal(b1-3)GlcNAc
Method in brief: (§1)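 Arrays were curated from the Consortium for Functional Glycomics database, 3228 in total, and kept only where the protein sequence was available. Binding is expressed as a within-array Z-score. This score was averaged across arrays of the same protein sequence at different concentrations or buffers and across linkers, and negative values can be read as non-binding.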

Kdn(a2-3)Gal(b1-4)GlcNAc = test system: Kdn(a2-3)Gal(b1-4)GlcNAc
Method in brief: as §1

Kdn(a2-3)Gal(b1-4)Glc = test system: Kdn(a2-3)Gal(b1-4)Glc
Method in brief: as §1

[1] = test system: Kdn(a2-3)Gal(b1-4)[Fuc(a1-3)]GlcNAc
Method in brief: as §1

Kdn(a2-6)Gal(b1-4)GlcNAc = test system: Kdn(a2-6)Gal(b1-4)GlcNAc
Method in brief: as §1

[2] = test system: Man(a1-2)Man(a1-2)Man(a1-3)Man
Method in brief: as §1

[3] = test system: Man(a1-2)Man(a1-2)Man(a1-6)[Man(a1-3)]Man
Method in brief: as §1

Man(a1-2)Man(a1-3)Man = test system: Man(a1-2)Man(a1-3)Man
Method in brief: as §1

[4] = test system: Man(a1-2)Man(a1-3)[Man(a1-2)Man(a1-6)]Man(a1-6)[Man(a1-2)Man(a1-2)Man(a1-3)]Man(b1-4)GlcNAc(b1-4)GlcNAc
Method in brief: as §1

[5] = test system: Man(a1-2)Man(a1-3)[Man(a1-2)Man(a1-6)]Man(a1-6)[Man(a1-2)Man(a1-2)Man(a1-3)]Man
Method in brief: as §1

[6] = test system: Man(a1-2)Man(a1-3)[Man(a1-2)Man(a1-6)]Man
Method in brief: as §1

[7] = test system: Man(a1-2)Man(a1-3)[Man(a1-6)]Man(a1-6)[Man(a1-2)Man(a1-3)]Man(b1-4)GlcNAc(b1-4)GlcNAc
Method in brief: as §1

[8] = test system: Man(a1-2)Man(a1-6)[Man(a1-3)]Man(a1-6)[Man(a1-2)Man(a1-2)Man(a1-3)]Man(b1-4)GlcNAc(b1-4)GlcNAc
Method in brief: as §1

[9] = test system: Man(a1-2)Man(a1-6)[Man(a1-3)]Man(a1-6)[Man(a1-2)Man(a1-2)Man(a1-3)]Man
Method in brief: as §1

[10] = test system: Man(a1-3)[Man(a1-6)]Man(a1-6)[Man(a1-2)Man(a1-3)]Man(b1-4)GlcNAc(b1-4)GlcNAc
Method in brief: as §1

[11] = test system: Man(a1-3)[Man(a1-6)]Man(a1-6)[Man(a1-3)]Man(b1-4)GlcNAc(b1-4)GlcNAc
Method in brief: as §1

[12] = test system: Man(a1-3)[Man(a1-6)]Man(a1-6)[Man(a1-3)]Man
Method in brief: as §1

[13] = test system: Man(a1-3)[Man(a1-6)]Man(b1-4)GlcNAc(b1-4)GlcNAc
Method in brief: as §1

[14] = test system: Man(a1-3)[Man(a1-6)]Man(b1-4)GlcNAc(b1-4)[Fuc(a1-6)]GlcNAc
Method in brief: as §1

Man(a1-3)[Man(a1-6)]Man = test system: Man(a1-3)[Man(a1-6)]Man
Method in brief: as §1

Man(a1-6)Man = test system: Man(a1-6)Man
Method in brief: as §1

Man(b1-4)GlcNAc = test system: Man(b1-4)GlcNAc
Method in brief: as §1

MurNAc(b1-4)GlcNAc = test system: MurNAc(b1-4)GlcNAc
Method in brief: as §1

[15] = test system: Neu5Ac(a2-3)Gal(b1-3)GalNAc(b1-3)Gal(a1-4)Gal(b1-4)Glc
Method in brief: as §1

[16] = test system: Neu5Ac(a2-3)Gal(b1-3)GalNAc(b1-4)Gal(b1-4)Glc
Method in brief: as §1

[17] = test system: Neu5Ac(a2-3)Gal(b1-3)GalNAc(b1-4)[Neu5Ac(a2-3)]Gal(b1-4)Glc
Method in brief: as §1

[18] = test system: Neu5Ac(a2-3)Gal(b1-3)GalNAc(b1-4)[Neu5Ac(a2-8)Neu5Ac(a2-3)]Gal(b1-4)Glc
Method in brief: as §1

[19] = test system: Neu5Ac(a2-3)Gal(b1-3)GalNAc6S
Method in brief: as §1

[20] = test system: Neu5Ac(a2-3)Gal(b1-3)GalNAc
Method in brief: as §1

[21] = test system: Neu5Ac(a2-3)Gal(b1-3)GlcNAc(b1-2)Man(a1-3)[GlcNAc(b1-4)][Neu5Ac(a2-3)Gal(b1-3)GlcNAc(b1-2)Man(a1-6)]Man(b1-4)GlcNAc(b1-4)GlcNAc
Method in brief: as §1

[22] = test system: Neu5Ac(a2-3)Gal(b1-3)GlcNAc(b1-2)Man(a1-3)[Neu5Ac(a2-3)Gal(b1-3)GlcNAc(b1-2)Man(a1-6)]Man(b1-4)GlcNAc(b1-4)GlcNAc
Method in brief: as §1

[23] = test system: Neu5Ac(a2-3)Gal(b1-3)GlcNAc(b1-2)Man
Method in brief: as §1

With MpAFP RI GFP (Marinomonas primoryensis) as the substance, how does the “glycan array binding signal (z-score)” value (Kdn(a2-3)Gal(b1-3)GlcNAc) read?
Its value is -0.658.

What about the “glycan array binding signal (z-score)” value (Kdn(a2-3)Gal(b1-4)GlcNAc) of the same substance?
Its value is -0.126.

What about the “glycan array binding signal (z-score)” value (Kdn(a2-3)Gal(b1-4)Glc) of the same substance?
Its value is -0.272.

What about the “glycan array binding signal (z-score)” value [1] of the same substance?
Its value is -0.342.

And the “glycan array binding signal (z-score)” value (Kdn(a2-6)Gal(b1-4)GlcNAc)?
The value was 0.191.

And the “glycan array binding signal (z-score)” value [2]?
The value was -0.515.

And the “glycan array binding signal (z-score)” value [3]?
Its value is -0.476.

What about the “glycan array binding signal (z-score)” value (Man(a1-2)Man(a1-3)Man) of the same substance?
Its value is -0.301.

And the “glycan array binding signal (z-score)” value [4]?
The value was -0.271.

And the “glycan array binding signal (z-score)” value [5]?
The value was -0.475.

And the “glycan array binding signal (z-score)” value [6]?
The value was 0.777.

What about the “glycan array binding signal (z-score)” value [7] of the same substance?
The value was -1.04.

What about the “glycan array binding signal (z-score)” value [8] of the same substance?
The value was -0.007.

What about the “glycan array binding signal (z-score)” value [9] of the same substance?
The value was -0.648.

And the “glycan array binding signal (z-score)” value [10]?
Its value is -0.2.

And the “glycan array binding signal (z-score)” value [11]?
Its value is -0.154.

What about the “glycan array binding signal (z-score)” value [12] of the same substance?
The value was 0.953.

And the “glycan array binding signal (z-score)” value [13]?
Its value is -0.314.

What about the “glycan array binding signal (z-score)” value [14] of the same substance?
Its value is -0.117.

And the “glycan array binding signal (z-score)” value (Man(a1-3)[Man(a1-6)]Man)?
Its value is 2.02.

What about the “glycan array binding signal (z-score)” value (Man(a1-6)Man) of the same substance?
The value was 0.447.

What about the “glycan array binding signal (z-score)” value (Man(b1-4)GlcNAc) of the same substance?
The value was 1.81.

And the “glycan array binding signal (z-score)” value (MurNAc(b1-4)GlcNAc)?
Its value is -0.327.

What about the “glycan array binding signal (z-score)” value [15] of the same substance?
Its value is -0.578.

And the “glycan array binding signal (z-score)” value [16]?
Its value is -0.46.

What about the “glycan array binding signal (z-score)” value [17] of the same substance?
Its value is -0.665.

And the “glycan array binding signal (z-score)” value [18]?
The value was -0.565.

And the “glycan array binding signal (z-score)” value [19]?
The value was -0.209.

What about the “glycan array binding signal (z-score)” value [20] of the same substance?
Its value is 0.25.

What about the “glycan array binding signal (z-score)” value [21] of the same substance?
The value was -0.323.

What about the “glycan array binding signal (z-score)” value [22] of the same substance?
Its value is 1.68.

And the “glycan array binding signal (z-score)” value [23]?
Its value is -0.347.
